# The other results are listed elsewhere or left out. Repeats are few or missing, and single values can be far off.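 Cells were imaged in 1,536-well plates, and nuclei stained with an antibody against cleaved PARP were counted against all DNA-stained nuclei to give the apoptosis fraction. Screening doses were chosen to leave most cells alive, and resting and induced cleaved-PARP levels differ strongly between cell lines.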
# Experiments:
# Assay in all cases: cleaved PARP positive nuclei fraction relative to DMSO control; melanoma cells; higher = more apoptosis
# Details in all cases: library dose: low library concentration; 72 h
# [1] = tested on: MeWo
# [2] = tested on: RPMI7951
# [3] = tested on: RVH-421
# [4] = tested on: SkMel28
# [5] = tested on: SkMel30
# [6] = tested on: SkMel5
# [7] = tested on: UACC257
# [8] = tested on: UACC62
# [9] = tested on: WM115
# [10] = tested on: WM1716
# [11] = tested on: WM1745
# [12] = tested on: WM3526
# [13] = tested on: WM3619
# [14] = tested on: WM451Lu
Structure (SMILES),cleaved PARP positive nuclei fraction [1],cleaved PARP positive nuclei fraction [2],cleaved PARP positive nuclei fraction [3],cleaved PARP positive nuclei fraction [4],cleaved PARP positive nuclei fraction [5],cleaved PARP positive nuclei fraction [6],cleaved PARP positive nuclei fraction [7],cleaved PARP positive nuclei fraction [8],cleaved PARP positive nuclei fraction [9],cleaved PARP positive nuclei fraction [10],cleaved PARP positive nuclei fraction [11],cleaved PARP positive nuclei fraction [12],cleaved PARP positive nuclei fraction [13],cleaved PARP positive nuclei fraction [14]
"Cn1c(=O)n(-c2ccc(C(C)(C)C#N)cc2)c2c3cc(-c4cnc5ccccc5c4)ccc3ncc21 + CC(C)(C)c1cnc(CSc2cnc(NC(=O)C3CCNCC3)s2)o1 [SNS-032] (first compound 0.004 µM, partner dose 0.01 µM)",79.2%,137%,32.7%,227%,66.6%,63%,81.4%,114%,293%,59.7%,90.9%,132%,97%,49.9%
"Nc1nc(F)nc2c1ncn2[C@@H]1O[C@H](CO)[C@@H](O)[C@@H]1O [fludarabine] + O=S(=O)(c1ccccc1)N(CC(F)(F)F)c1ccc(C(O)(C(F)(F)F)C(F)(F)F)cc1 [T0901317] (first compound 0.2 µM, partner dose 1.4 µM)",321%,74%,117%,187%,518%,119%,170%,61.7%,170%,101%,94.6%,1550%,89.7%,625%
"CN1CCN(c2ccc3nc(-c4c(N)c5c(F)cccc5[nH]c4=O)[nH]c3c2)CC1 [Dovitinib] + Nc1ccn([C@@H]2O[C@H](CO)[C@@H](O)C2(F)F)c(=O)n1 [gemcitabine] (first compound 0.1 µM, partner dose 0.0004 µM)",129%,108%,59.6%,103%,171%,,,78.3%,139%,185%,272%,51.6%,101%,216%
"Nc1nc(F)nc2c1ncn2[C@@H]1O[C@H](CO)[C@@H](O)[C@@H]1O [fludarabine] + Cn1nnc2c(C(N)=O)ncn2c1=O [temozolomide] (first compound 0.2 µM, partner dose 2 µM)",2200%,160%,199%,147%,1730%,,,168%,154%,75.7%,83.5%,892%,88.4%,109%
